Reference: paper PMC11291268
Results are given in words; binding and its absence hold for the method and conditions named. Binding seen in cells or lysates may run through a third protein. Some results given as binding are weak or reduced against the parent protein; the word gives no strength. For some of these results: Sequences can lack the tags named with a protein.

By UniProt entry, the sequences of proteins in these tests, tags left out. Where a name states a change or a piece, a line headed by the entry shows the natural chain unless it says otherwise.
UniProt P16520: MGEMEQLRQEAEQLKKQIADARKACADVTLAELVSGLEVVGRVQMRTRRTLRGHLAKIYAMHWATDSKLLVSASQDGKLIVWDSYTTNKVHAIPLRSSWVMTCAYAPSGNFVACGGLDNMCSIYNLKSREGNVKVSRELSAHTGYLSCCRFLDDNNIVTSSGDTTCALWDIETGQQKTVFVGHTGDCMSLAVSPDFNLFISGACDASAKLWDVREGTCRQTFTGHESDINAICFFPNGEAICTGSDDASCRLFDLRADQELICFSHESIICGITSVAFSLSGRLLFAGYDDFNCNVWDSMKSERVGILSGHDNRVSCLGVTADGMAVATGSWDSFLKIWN
UniProt P09471: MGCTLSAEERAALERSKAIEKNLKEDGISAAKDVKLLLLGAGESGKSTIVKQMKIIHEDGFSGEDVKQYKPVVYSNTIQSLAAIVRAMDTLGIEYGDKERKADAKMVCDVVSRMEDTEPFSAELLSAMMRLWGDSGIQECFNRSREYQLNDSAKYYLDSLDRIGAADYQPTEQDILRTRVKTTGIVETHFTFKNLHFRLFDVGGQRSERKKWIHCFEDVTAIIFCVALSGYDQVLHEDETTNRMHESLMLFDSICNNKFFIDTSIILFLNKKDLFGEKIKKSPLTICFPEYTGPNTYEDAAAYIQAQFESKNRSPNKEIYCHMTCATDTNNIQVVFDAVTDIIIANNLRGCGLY
UniProt P63092: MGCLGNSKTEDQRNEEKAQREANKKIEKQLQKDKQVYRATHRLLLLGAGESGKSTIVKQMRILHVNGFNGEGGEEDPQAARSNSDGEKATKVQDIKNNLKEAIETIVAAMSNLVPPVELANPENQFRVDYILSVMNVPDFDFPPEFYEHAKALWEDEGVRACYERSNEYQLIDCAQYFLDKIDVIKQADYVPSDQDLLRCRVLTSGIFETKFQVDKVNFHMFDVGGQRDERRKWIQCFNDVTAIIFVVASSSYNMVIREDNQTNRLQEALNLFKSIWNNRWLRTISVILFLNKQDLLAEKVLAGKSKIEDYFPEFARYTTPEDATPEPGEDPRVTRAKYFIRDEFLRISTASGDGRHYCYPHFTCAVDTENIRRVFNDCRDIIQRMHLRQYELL
UniProt P16378: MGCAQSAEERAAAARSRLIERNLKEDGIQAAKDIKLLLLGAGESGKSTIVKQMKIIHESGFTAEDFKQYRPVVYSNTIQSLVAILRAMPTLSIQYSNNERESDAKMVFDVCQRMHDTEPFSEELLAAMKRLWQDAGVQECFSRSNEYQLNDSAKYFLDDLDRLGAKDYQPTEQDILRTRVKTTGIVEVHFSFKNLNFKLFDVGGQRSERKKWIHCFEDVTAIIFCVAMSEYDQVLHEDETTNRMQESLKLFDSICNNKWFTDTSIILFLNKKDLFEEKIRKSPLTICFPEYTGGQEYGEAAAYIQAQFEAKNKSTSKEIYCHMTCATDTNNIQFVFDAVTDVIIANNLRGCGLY
UniProt P50148: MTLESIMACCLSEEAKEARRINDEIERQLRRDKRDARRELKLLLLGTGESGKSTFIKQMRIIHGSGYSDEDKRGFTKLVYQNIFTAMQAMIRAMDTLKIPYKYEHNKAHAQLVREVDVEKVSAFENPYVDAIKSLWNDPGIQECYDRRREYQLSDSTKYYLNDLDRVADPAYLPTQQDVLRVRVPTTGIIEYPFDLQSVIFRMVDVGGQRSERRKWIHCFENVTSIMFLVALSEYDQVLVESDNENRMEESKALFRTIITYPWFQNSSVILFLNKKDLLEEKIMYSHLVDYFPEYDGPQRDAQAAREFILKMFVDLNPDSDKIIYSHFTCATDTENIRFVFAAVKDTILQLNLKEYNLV
UniProt P38405: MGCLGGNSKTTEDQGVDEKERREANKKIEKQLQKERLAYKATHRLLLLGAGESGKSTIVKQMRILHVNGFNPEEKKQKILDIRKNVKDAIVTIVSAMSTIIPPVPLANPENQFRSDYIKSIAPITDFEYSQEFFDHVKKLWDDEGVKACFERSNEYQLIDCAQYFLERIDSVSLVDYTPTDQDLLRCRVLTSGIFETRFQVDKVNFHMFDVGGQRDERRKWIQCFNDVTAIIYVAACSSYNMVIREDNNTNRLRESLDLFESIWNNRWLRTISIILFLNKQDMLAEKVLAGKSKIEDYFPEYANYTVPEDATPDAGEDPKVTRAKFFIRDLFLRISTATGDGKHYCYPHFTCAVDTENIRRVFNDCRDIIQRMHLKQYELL
UniProt P63096: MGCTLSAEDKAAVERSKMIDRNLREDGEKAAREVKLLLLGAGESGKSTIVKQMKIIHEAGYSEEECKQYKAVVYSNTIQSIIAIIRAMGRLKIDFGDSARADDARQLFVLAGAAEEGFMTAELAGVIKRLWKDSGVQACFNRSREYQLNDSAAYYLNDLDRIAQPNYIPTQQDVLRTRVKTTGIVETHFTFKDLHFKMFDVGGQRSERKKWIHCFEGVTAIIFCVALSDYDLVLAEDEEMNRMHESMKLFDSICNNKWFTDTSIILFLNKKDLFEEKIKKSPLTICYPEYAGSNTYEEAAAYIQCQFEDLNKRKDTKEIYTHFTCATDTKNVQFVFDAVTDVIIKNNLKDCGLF
UniProt P29992: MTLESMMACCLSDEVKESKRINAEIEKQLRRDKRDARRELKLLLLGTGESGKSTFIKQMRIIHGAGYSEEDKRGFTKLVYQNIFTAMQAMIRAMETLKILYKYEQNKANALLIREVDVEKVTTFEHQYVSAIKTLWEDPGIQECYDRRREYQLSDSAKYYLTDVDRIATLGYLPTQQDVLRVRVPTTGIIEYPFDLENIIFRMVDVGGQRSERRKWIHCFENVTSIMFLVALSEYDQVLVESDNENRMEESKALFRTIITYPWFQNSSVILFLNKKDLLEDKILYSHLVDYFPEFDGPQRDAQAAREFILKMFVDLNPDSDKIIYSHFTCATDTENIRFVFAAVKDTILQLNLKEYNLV
UniProt Q14344: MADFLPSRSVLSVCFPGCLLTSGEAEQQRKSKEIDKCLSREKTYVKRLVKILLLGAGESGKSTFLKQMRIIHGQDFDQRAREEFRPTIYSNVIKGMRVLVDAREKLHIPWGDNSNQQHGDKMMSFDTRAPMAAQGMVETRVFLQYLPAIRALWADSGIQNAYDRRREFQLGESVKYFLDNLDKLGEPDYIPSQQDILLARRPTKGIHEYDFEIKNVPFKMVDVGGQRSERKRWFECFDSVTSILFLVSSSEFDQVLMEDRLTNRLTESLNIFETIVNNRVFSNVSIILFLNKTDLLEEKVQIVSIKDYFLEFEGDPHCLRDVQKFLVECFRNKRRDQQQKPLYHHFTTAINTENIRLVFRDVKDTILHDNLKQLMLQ

Columns and labels:
GFP-Ric8B [1] = molecular target: T1, GFP-Ric8B (UniProt Q80XE1); assay: co-IP; N2a cells cotransfected with GFP-Ric8B and nontagged Gαo variant; IP with GST-tagged anti-GFP nanobody; Western blot with anti-GFP and anti-Gαo (clone E1 or A2)
T1 sequence: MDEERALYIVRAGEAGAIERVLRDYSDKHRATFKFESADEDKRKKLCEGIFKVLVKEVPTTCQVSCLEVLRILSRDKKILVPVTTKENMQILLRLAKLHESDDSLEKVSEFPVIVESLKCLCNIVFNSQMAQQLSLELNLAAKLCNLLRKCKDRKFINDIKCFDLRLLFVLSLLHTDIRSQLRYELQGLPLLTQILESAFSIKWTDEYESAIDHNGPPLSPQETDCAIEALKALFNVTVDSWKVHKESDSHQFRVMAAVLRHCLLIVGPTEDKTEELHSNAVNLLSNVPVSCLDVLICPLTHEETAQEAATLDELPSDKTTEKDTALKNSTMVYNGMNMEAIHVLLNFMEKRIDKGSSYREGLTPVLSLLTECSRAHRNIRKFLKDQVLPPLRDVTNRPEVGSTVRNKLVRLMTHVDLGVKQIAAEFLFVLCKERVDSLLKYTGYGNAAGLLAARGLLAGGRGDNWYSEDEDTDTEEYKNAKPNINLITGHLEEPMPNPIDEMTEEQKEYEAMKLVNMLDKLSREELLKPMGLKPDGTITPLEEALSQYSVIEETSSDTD

GFP-Ric8A [2] = molecular target: T2, GFP-Ric8A (UniProt Q3TIR3); assay: co-IP; N2a cells cotransfected with GFP-Ric8A (wild type, R75E or K225A) and nontagged Gαo variant; IP with GST-tagged anti-GFP nanobody; Western blot with anti-GFP and anti-Gαo (clone E1 or A2); also after 10 μM DDD85646
T2 sequence: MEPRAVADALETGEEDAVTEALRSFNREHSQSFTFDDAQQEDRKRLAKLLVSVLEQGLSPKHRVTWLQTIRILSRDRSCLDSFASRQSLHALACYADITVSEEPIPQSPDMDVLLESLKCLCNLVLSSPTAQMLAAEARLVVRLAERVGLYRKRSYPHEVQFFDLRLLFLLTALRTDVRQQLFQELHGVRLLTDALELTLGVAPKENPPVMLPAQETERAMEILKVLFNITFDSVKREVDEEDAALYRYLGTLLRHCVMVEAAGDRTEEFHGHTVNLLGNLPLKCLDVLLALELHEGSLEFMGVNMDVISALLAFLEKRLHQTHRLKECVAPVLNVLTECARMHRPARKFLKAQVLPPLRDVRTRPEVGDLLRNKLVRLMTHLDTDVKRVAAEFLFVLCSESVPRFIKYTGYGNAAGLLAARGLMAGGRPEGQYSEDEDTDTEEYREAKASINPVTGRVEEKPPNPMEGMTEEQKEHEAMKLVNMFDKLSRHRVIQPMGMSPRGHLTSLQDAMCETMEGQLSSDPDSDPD

GFP-Ric8B [3] = molecular target: T1, GFP-Ric8B; assay: co-IP; HEK293T cells cotransfected with GFP-Ric8A or GFP-Ric8B and a nontagged Gα subunit; IP with GST-tagged anti-GFP nanobody; Western blot
GFP-Ric8B [4] = molecular target: T1, GFP-Ric8B; assay: co-IP; HEK293T cells cotransfected with GFP-Ric8A or GFP-Ric8B, a nontagged Gα subunit and wild-type Gαo, a Gαo mutant or empty plasmid (1 μg each); IP with GST-tagged anti-GFP nanobody; Western blot
[5] = molecular target: T3, Drosophila GFP-Ric8 (Drosophila) (UniProt Q9W358); assay: co-IP; Drosophila or human Gαo G203R with Drosophila GFP-Ric8 or mammalian GFP-Ric8A (Supplemental Figure 8A); cell line not stated
T3 sequence: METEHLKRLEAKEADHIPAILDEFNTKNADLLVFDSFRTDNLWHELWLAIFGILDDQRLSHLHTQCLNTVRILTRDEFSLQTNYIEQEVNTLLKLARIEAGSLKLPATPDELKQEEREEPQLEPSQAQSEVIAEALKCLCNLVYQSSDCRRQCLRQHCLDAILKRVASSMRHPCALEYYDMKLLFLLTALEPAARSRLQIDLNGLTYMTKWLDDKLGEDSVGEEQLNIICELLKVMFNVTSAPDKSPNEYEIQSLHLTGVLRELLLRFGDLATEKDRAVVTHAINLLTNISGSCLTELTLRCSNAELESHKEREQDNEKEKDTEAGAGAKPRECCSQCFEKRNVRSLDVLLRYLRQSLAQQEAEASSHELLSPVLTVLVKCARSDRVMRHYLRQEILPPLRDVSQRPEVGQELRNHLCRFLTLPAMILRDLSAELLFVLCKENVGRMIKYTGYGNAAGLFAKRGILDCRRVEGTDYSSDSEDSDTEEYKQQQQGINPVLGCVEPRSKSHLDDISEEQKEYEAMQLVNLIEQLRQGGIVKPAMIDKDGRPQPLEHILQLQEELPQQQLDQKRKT

GFP-Ric8A [6] = molecular target: T2, GFP-Ric8A; assay: as above
[7] = molecular target: Gβ3γ9 with a Venus fusion (UniProt P16520); assay: FRET or BRET; Gβ3γ9 displacement: HEK293T cells cotransfected with Go1-CASE (NLuc-tagged Gαo, Gβ3, Venus-tagged Gγ9) and nontagged Gαo variant at 1:1; reduction in the BRET signal
GFP-Ric8A [8] = molecular target: T2, GFP-Ric8A; assay: co-IP; HEK293T cells cotransfected with GFP-Ric8A or GFP-Ric8B and a nontagged Gα subunit; IP with GST-tagged anti-GFP nanobody; Western blot
GFP-Ric8A [9] = molecular target: T2, GFP-Ric8A; assay: co-IP; HEK293T cells cotransfected with GFP-Ric8A or GFP-Ric8B, a nontagged Gα subunit and wild-type Gαo, a Gαo mutant or empty plasmid (1 μg each); IP with GST-tagged anti-GFP nanobody; Western blot

binding (GFP-Ric8B [1]) | binding (GFP-Ric8A [2]) | binding [7] | Substance | further results
binds | binds |  | nontagged Gαo A227V (from UniProt P09471 1-354) | 
 |  |  | Gαs (from UniProt P63092 1-394) | binding (GFP-Ric8B [3]): binds; binding (GFP-Ric8B [4]): binds
 |  |  | Drosophila Gαo G203R (from UniProt P16378 1-354) | binding [5]: binds; binding (GFP-Ric8A [6]): binds
binds | binds | binds weakly | nontagged Gαo F275S (from UniProt P09471 1-354) | 
 |  |  | Gαq (from UniProt P50148 1-359) | binding (GFP-Ric8A [8]): binds; binding (GFP-Ric8B [3]): binds; binding (GFP-Ric8A [9]): binds
 |  |  | Gαolf (from UniProt P38405 1-381) | binding (GFP-Ric8B [3]): binds; binding (GFP-Ric8B [4]): binds
 |  |  | Gαi1 (from UniProt P63096 1-354) | binding (GFP-Ric8A [8]): binds; binding (GFP-Ric8A [9]): binds
binds | binds | binds | nontagged Gαo R209C (from UniProt P09471 1-354) | 
binds | binds |  | nontagged Gαo Y231C (from UniProt P09471 1-354) | 
 |  | binds | Gαo-NLuc (from UniProt P09471 1-354) | 
 |  |  | Gα11 (from UniProt P29992 1-359) | binding (GFP-Ric8A [8]): binds; binding (GFP-Ric8B [3]): binds; binding (GFP-Ric8A [9]): binds
binds | binds | binds | nontagged Gαo S47G (from UniProt P09471 1-354) | 
binds | binds |  | nontagged Gαo I279N (from UniProt P09471 1-354) | 
 | binds weakly | binds | nontagged Gαo wild-type (from UniProt P09471 1-354) | 
binds | binds | binds weakly | nontagged Gαo G40R (from UniProt P09471 1-354) | 
 |  |  | Gα13 (from UniProt Q14344 1-377) | binding (GFP-Ric8A [8]): binds; binding (GFP-Ric8A [9]): binds
binds | binds | binds | nontagged Gαo E246K (from UniProt P09471 1-354) | 
binds | binds |  | nontagged Gαo L199P (from UniProt P09471 1-354) | 
binds | binds | binds | nontagged Gαo Q233P (from UniProt P09471 1-354) | 
binds | binds | binds | nontagged Gαo E237K (from UniProt P09471 1-354) | 
 | binds | binds | nontagged Gαo C215Y (from UniProt P09471 1-354) | 
binds | binds | binds weakly | nontagged Gαo N270H (from UniProt P09471 1-354) | 
binds | binds | binds weakly | nontagged Gαo G45E (from UniProt P09471 1-354) | 
 | binds weakly |  | nontagged Gαo Q205L (from UniProt P09471 1-354) | 
binds | binds | binds | nontagged Gαo G203R (from UniProt P09471 1-354) | binding [5]: binds
binds | binds | binds weakly | nontagged Gαo D174G (from UniProt P09471 1-354) | 
